We go through two molecules from paper doi:10.1101/2021.04.21.440771.

Amino acid sequences for entries named in this document (tags omitted).
UniProt P50149: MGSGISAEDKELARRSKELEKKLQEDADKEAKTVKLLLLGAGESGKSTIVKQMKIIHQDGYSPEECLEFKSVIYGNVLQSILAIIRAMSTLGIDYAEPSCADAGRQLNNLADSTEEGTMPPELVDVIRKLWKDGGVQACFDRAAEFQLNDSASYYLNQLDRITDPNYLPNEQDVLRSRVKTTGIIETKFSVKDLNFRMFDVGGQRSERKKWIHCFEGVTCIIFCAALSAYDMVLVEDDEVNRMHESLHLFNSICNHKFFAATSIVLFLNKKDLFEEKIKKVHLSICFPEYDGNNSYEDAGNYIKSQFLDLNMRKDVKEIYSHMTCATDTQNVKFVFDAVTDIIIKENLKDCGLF

Results are given in words; binding and its absence hold for the method and conditions named. Binding seen in cells or lysates may run through a third protein. Some entries that bind do so weakly or less than the wild type. For some assays here: Where a sequence is shown, tags or fusion partners need not be part of it.

Experiment [1] addresses cone transducin alpha subunit (Gαt2) (mouse (endogenous in retina)) (UniProt P50149). In words: co-IP.
Experiment [2] concerns the target Gαt2 (Gnat2) fusion construct expressed in 293T cells (UniProt P50149). In words: co-IP.

B1: G-protein signaling modulator protein 2 (GPSM2) (protein, UniProt Q8VDU0 1-679)
chain: MEGNLISMREDHSFHVRYRMEASCLELALEGERLCKSGDCRAGVSFFEAAVQVGTEDLKTLSAIYSQLGNAYFYLHDYAKALEYHHHDLTLARTIGDQLGEAKASGNLGNTLKVLGNFDEAIVCCQRHLDISRELNDKVGEARALYNLGNVYHAKGKSFGCPGPQDTGEFPEDVRNALQAAVDLYEENLSLVTALGDRAAQGRAFGNLGNTHYLLGNFRDAVIAHEQRLLIAKEFGDKAAERRAYSNLGNAYIFLGEFETASEYYKKTLLLARQLKDRAVEAQSCYSLGNTYTLLQDYEKAIDYHLKHLAIAQELKDRIGEGRACWSLGNAYTALGNHDQAMHFAEKHLEISREVGDKSGELTARLNLSDLQMVLGLSYSTNNSMMSENIEIDGSLHGAGAKLGRRHSMENLELMKLTPEKVPNWNSEILAKQKPLIAKPSAKLLFVNRLKGKKYKSGSACTKVLQDASNSVDHRAPRSQKKISSDTIGDEGFFDLLRRFQSNRMDDQRCHLQGNCRTTSTAAASATPKLMKAPSVSVVSPNTDEFLDLLASSQSRRLDDQRASFSNLPGLRLTKGNSPSVLERLMTNDKKEPDEDFFDILVKCQGSRLDDQRCAPPSAATKGPTVPDEDFFSLILRSQAKRMDEQRVLLQRDPNRDSEFGLKELLQNNALLEFKHSGK
For the molecule B1, the binding entry in experiment [1] is on record as “binds”.

B2: GPSM2 fusion construct expressed in 293T cells (protein, UniProt Q8VDU0 1-679)
chain: B1 chain
As for B2, in experiment [2], the binding entry was “binds”.
